From publication PMC5007442
No constants are given. Whether binding was seen depends on the method and setting. In cells and extracts the contact can be indirect. Some entries that bind do so weakly or less than the wild type. Sequences can lack the tags named with a protein.

Target: T1, HA-CYLD (UniProt Q9NQC7)
T1 sequence: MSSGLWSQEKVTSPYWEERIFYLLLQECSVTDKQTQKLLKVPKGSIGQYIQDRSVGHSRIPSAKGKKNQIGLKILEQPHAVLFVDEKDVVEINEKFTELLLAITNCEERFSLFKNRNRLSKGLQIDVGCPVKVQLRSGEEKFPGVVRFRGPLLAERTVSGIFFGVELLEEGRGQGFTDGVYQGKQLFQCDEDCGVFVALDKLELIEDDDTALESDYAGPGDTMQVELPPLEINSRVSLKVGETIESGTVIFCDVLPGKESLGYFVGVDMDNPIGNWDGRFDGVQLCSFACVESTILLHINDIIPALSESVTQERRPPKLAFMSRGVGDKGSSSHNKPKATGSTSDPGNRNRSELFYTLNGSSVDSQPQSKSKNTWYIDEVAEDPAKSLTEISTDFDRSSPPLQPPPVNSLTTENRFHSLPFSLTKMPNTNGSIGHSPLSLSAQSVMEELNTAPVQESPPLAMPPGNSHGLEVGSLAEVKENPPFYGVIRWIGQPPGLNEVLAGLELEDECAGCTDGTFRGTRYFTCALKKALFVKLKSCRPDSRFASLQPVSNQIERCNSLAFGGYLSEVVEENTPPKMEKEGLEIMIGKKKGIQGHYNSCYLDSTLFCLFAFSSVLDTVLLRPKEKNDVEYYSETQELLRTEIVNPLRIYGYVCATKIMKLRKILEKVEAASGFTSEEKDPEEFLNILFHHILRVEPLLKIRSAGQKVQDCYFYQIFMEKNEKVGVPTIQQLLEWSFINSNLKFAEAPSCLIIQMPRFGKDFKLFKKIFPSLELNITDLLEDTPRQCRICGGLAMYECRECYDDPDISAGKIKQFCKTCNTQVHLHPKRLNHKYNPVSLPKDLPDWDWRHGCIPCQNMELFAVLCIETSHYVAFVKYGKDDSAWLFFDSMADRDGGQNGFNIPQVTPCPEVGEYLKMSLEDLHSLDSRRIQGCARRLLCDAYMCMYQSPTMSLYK
Experiment: co-IP; HA-CYLD immunoprecipitated from CpT-treated HEK-293 T cells transfected with HA-CYLD and GFP-p53; blot with anti-GFP; interaction enhanced after DNA damage

For GFP-p53 (from UniProt P04637 1-393), the binding was “binds”.
